Among the data in PMC5044849 are binding values, retold here.

Protein sequences, listed by entry. Tags and fused reporters are not part of them. Lines headed by an entry give the natural chain unless they say otherwise; changes in a name come on top. Chains listed by the source or under a name are the forms on record and can include a tag or linker. Residues count along the entry.
UniProt Q99IB8, residues 1977-2442: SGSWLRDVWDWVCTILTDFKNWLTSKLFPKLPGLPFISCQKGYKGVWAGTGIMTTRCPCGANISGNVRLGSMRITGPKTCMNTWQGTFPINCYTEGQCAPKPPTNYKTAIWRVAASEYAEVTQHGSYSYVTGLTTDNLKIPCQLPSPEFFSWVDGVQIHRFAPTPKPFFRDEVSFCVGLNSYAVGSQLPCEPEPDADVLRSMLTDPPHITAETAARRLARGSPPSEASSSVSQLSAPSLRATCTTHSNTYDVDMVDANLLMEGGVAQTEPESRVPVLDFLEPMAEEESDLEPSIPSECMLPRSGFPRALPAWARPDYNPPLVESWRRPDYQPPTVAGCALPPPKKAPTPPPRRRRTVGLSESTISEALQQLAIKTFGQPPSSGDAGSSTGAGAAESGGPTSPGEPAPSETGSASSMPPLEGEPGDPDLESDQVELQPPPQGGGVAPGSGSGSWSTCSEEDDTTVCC
UniProt P35790: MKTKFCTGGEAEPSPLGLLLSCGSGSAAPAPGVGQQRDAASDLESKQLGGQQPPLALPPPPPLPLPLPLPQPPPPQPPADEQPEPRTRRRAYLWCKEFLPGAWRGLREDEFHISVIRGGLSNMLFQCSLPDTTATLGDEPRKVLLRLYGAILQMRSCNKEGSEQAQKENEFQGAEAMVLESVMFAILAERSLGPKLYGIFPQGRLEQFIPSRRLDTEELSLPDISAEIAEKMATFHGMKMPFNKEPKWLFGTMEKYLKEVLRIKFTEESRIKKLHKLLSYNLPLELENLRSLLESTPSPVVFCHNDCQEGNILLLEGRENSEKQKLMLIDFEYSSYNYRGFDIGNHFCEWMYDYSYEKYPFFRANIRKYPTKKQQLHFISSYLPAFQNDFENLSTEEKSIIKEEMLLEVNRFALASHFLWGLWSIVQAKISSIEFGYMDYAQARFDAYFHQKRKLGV
hCKα tagged with Myc and DDDK (Flag) at the C terminus (pCMV6-hCKα; pCMV6-hCKα-R) (P35790-2, form named): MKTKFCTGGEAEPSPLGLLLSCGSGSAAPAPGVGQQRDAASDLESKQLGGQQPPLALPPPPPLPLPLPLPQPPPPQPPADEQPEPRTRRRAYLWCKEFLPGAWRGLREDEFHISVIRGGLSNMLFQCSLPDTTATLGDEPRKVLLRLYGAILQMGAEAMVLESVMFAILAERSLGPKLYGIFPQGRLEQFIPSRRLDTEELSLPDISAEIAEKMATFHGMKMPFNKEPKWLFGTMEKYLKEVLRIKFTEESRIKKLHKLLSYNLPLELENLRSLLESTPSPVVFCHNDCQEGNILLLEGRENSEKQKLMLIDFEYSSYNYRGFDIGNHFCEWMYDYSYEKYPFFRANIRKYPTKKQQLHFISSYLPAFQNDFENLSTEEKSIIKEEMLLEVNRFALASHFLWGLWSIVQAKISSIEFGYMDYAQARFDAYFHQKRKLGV

Assay [1] deals with NS5A expressed from pTM-NS5A (T7 promoter) (hepatitis C virus (strain not stated)) (UniProt Q99IB8). The assay can be described thus: co-IP; T7 Pol/Huh7 cells cotransfected with pTM-NS5A and pTM-NS5B, treated with DMSO or CK37 (100 μM, 24 h); lysates precipitated with NS5A MAb or isotype IgG; immunoblot. A general note: A western blot detects proteins with antibodies after separation by electrophoresis.

In assay [2] the target is HA-tagged NS5A of the genotype 1b Con1 strain (hepatitis C virus genotype 1b Con1 strain) (UniProt Q9WMX2). Briefly: co-IP; 293T cells cotransfected with HA-tagged Con1 NS proteins and hCKα-Flag; lysed with 1% CHAPS; precipitated with rabbit anti-HA; immunoblot.
The target of assay [3] is NS5A expressed from pTM-NS5A (T7 promoter) (hepatitis C virus (strain not stated)) (UniProt Q99IB8). Briefly: co-IP; control and hCKα stable knockdown Huh7 cells with T7 RNA polymerase, transfected with wild-type hCKα, hCKα-R or D288A hCKα-R, then with pTM-NS5A and pTM-NS5B; lysates precipitated with NS5A MAb or isotype IgG; immunoblot.
The target in assay [4] is hCKα tagged with Myc and DDDK (Flag) at the C terminus (pCMV6-hCKα; pCMV6-hCKα-R) (human) (UniProt P35790). Briefly: co-IP; Huh7 cells expressing hCKα-Flag and HA-NS5A; lysates precipitated with rabbit anti-Flag; immunoblot.

No constants are given. Whether binding was seen depends on the method and setting. Binding seen in cells or lysates may run through a third protein. Some entries that bind do so weakly or less than the wild type.

Regarding “human choline kinase-α (endogenous) (from UniProt P35790 1-457) (enzyme)”, the binding result in assay [1] is listed as “binds”.

Regarding “hCKα tagged with Myc and DDDK (Flag) at the C terminus (pCMV6-hCKα; pCMV6-hCKα-R) (from UniProt P35790-2 1-439) (enzyme)”, the binding entry in assay [2] and in assay [3] was “binds” in each case.

As for “HA-tagged NS5A of the genotype 1b Con1 strain (from UniProt Q9WMX2 1973-2419)”, the binding result in assay [4] is given as “binds”.
